Our source for the binding values is patent publication US20190169294A1.

Results are given in words; binding and its absence hold for the method and conditions named. A result given as binding can be weak or reduced; the word gives no strength.

The target in assay [1] is bovine LAG-3-EGFP on COS-7 cells (bovine LAG-3 expressing cells) (bovine). The assay is described as follows: flow cytometry on bovine LAG-3-EGFP expressing COS-7 cells. (A flow cytometer gives signals particle by particle.)
For assay [2], the target named is water buffalo LAG-3-EGFP on COS-7 cells (water buffalo LAG-3 expressing cells) (water buffalo). Description: flow cytometry on water buffalo LAG-3-EGFP expressing COS-7 cells, antibody at 10 ug/ml.
The target is the same in assay [3]. The assay is described as follows: flow cytometry on water buffalo LAG-3-EGFP expressing COS-7 cells (figure legend).

B1: rat-bovine chimeric anti-bovine LAG-3 antibody ch2D8 (antibody, IgG1, V domains shown)
VH: EVQLVESGGGLVQPKGSLRLSCAASGFDFDTYPMSWVRQAPGKGLDWVASITIKTHNYATLYAASVKERFTISRDDSQSMVYLQMNNLKTEDTALYYCNREDFDYWGQGVMVTVSS
VL: DVVLTQTPPTLSATIGQSVSISCRSSQSLLDSDGNTYLNWLLQRPGQSPQLLIYSVSNLESGVPNRFSGSGSETDFTLKISGVEAEDLGVYYCMQATHVPFTFGSGTKLEIKQ
As for B1, in assay [1], the binding entry was “binds”.

B2: rat anti-bovine LAG-3 monoclonal antibody 2D8 (antibody, V domains shown)
VH: EVQLVESGGGLVQPKGSLRLSCAASGFDFDTYPMSWVRQAPGKGLDWVASITIKTHNYATLYAASVKERFTISRDDSQSMVYLQMNNLKTEDTALYYCNREDFDYWGQGVMVTVSS
VL: DVVLTQTPPTLSATIGQSVSISCRSSQSLLDSDGNTYLNWLLQRPGQSPQLLIYSVSNLESGVPNRFSGSGSETDFTLKISGVEAEDLGVYYCMQATHVPFTFGSGTKLEIK
In the case of B2, the binding entry in assay [2], in assay [1] and in assay [3] was “binds” throughout.
